Test results as given in patent publication US20170121379A1.
These are yes or no findings as the source states them, for the method shown. Some binding calls cover weakened binding; strength is not graded here.

Legend:
human CD20 (human) [1] = target: T1, human CD20 (human) (UniProt P11836); experiment: confocal imaging of cells treated 60 min at 37 C, streptavidin staining
T1 sequence (looked up): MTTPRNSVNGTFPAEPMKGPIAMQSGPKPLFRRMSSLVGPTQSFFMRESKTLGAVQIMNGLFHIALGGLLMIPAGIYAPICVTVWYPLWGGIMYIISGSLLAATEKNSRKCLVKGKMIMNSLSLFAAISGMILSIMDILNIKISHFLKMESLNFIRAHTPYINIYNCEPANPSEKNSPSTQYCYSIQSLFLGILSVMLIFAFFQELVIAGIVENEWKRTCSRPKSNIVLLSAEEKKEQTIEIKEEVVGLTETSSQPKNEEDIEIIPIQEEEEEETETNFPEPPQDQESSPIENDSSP

human CD20 (human) [2] = target: T1, human CD20 (human); experiment: flow cytometry on human PBMC, biotinylated fusion protein, FITC-streptavidin surface staining
human CD20 (human) [3] = target: T1, human CD20 (human); experiment: flow cytometry on Raji cells, detection with APC anti-human IgG
human CD20 (human) [4] = target: T1, human CD20 (human); experiment: flow cytometry on Raji cells (5x10^5 cells, 1 ug fusion protein, 1 h 37 C), detection with APC anti-human IgG

Measured: binding

B1: BAIThCD20-FVIII2191-2210 (Fc fusion, not shown: a dimerising Fc or GST)
chain: MAQVQLVQSGAELVKPGASVKMSCKASGYTFTSYNMHWVKQTPGQGLEWIGAIYPGNGDTSYNQKFKGKATLTADKSSSTAYMQLSSLTSEDSAVYYCARAQLRPNYWYFDVWGAGTTVTVSGGGGSGGGGSGGGGSDIVLSQSPAILSASPGEKVTMTCRASSSVSYMHWYQQKPGSSPKPWIYATSNLASGVPARFSGSGSGTSYSLTISRVEAEDAATYYCQQWISNPPTFGAGTKLELKTASSYFTNMFATWSPSKARL
binds: all assays above
